Experimental data reported in publication PMC6166740.
No constants are given. Whether binding was seen depends on the method and setting. Binding seen in cells or lysates may run through a third protein. Some results given as binding are weak or reduced against the parent protein; the word gives no strength. Where a sequence is shown, tags or fusion partners need not be part of it.

How the values were obtained:
[1] = biological target: T1, WDR19 (UniProt Q8NEZ3); test: co-IP; FLAG-tagged and V5-tagged proteins coexpressed in HEK293T cells (calcium phosphate, 24 h); lysis in 1% Triton X-100, 20 mM Tris pH 7.5, 50 mM NaCl, 50 mM NaF, 15 mM Na4P2O7, 0.1 mM EDTA; anti-FLAG M2 agarose beads 2 h; Western blot with anti-V5 and anti-FLAG
T1 sequence: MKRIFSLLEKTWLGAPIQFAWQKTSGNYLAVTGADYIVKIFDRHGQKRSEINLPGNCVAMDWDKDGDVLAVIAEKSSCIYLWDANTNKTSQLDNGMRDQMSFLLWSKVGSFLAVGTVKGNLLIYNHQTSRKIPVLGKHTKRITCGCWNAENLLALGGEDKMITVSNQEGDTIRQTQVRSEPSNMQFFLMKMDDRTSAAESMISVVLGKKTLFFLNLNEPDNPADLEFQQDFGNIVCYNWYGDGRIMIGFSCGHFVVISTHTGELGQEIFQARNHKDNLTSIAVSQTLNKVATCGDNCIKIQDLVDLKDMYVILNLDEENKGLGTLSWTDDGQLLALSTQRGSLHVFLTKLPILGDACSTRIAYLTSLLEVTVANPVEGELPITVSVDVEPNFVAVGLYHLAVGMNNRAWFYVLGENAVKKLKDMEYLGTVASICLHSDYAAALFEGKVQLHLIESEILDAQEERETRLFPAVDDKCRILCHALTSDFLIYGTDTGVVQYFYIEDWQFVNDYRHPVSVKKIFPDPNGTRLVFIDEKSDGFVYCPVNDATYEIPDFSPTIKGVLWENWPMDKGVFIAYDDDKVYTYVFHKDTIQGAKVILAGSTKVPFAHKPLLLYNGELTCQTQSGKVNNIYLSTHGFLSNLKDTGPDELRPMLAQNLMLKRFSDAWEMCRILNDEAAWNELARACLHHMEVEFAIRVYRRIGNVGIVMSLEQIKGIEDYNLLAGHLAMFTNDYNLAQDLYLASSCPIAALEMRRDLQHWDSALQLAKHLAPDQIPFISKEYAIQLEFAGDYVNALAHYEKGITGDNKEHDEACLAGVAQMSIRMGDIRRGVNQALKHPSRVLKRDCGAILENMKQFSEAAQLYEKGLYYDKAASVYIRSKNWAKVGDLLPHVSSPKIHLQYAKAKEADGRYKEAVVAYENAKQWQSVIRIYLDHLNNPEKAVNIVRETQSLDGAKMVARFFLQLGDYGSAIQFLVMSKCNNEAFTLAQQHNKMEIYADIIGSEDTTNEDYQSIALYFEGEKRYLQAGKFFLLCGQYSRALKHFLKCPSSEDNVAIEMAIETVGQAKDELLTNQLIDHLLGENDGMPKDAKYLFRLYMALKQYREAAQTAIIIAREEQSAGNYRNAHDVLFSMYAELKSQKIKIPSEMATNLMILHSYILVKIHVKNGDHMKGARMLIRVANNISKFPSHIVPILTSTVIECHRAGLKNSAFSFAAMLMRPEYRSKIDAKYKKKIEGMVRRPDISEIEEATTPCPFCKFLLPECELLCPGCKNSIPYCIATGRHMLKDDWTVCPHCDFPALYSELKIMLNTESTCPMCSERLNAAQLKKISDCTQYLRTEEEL

[2] = biological target: T2, FLAG-tagged NPHP4 (UniProt O75161); test: as above
T2 sequence: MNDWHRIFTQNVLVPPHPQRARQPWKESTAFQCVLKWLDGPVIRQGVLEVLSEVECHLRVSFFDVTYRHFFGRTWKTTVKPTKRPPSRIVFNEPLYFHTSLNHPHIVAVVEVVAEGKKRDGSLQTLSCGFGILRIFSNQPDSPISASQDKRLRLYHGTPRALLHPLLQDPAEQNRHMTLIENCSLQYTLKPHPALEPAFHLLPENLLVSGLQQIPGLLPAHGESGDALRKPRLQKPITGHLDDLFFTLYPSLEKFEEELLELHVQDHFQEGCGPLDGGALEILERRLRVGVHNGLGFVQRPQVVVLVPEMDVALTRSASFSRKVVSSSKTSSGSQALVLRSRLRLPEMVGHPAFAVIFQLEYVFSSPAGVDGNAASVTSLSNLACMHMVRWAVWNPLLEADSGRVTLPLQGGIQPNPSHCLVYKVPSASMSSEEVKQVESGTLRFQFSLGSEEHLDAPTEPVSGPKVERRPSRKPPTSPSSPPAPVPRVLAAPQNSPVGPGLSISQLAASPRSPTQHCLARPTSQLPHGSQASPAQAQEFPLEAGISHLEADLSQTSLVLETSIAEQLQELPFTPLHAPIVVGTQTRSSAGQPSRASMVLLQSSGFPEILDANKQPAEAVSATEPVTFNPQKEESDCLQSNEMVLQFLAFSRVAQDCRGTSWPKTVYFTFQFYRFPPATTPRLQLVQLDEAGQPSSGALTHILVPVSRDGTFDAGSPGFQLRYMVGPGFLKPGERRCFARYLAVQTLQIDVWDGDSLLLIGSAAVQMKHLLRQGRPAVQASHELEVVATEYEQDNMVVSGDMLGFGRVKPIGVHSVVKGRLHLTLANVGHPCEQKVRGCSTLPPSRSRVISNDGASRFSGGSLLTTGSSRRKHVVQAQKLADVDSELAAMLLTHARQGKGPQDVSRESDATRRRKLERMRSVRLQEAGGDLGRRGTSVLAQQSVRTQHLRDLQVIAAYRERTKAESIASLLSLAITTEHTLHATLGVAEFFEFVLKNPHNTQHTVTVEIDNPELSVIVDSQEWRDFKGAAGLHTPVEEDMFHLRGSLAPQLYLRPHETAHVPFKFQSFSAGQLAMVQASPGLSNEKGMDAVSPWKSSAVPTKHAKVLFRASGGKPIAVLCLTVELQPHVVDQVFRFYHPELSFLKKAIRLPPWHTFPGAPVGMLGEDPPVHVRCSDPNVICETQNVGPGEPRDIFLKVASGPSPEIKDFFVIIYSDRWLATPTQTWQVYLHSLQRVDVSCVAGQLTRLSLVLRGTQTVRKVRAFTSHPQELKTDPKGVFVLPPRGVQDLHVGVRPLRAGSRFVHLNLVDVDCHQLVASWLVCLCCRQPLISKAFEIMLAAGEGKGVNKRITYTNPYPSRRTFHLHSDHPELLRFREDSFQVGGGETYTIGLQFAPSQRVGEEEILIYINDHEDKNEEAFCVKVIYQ

B1: V5-tagged NME3 (enzyme, UniProt Q13232 1-169)
chain: MICLVLTIFANLFPAACTGAHERTFLAVKPDGVQRRLVGEIVRRFERKGFKLVALKLVQASEELLREHYAELRERPFYGRLVKYMASGPVVAMVWQGLDVVRTSRALIGATNPADAPPGTIRGDFCIEVGKNLIHGSDSVESARREIALWFRADELLCWEDSAGHWLYE
[1]
  binding: binds
[2]
  binding: binds
